Laboratory results as given in PubChem BioAssay AID1671190 (National Center for Advancing Translational Sciences (NCATS), 2021).
Among all 580,000 compounds or so, about 6,100 (1.1%) were called active. The inconclusive results got no clear call from the source; some entries with a clear call stand among them for comparison. The call rests on the fitted dose curve; in most records, active means well fitted inhibition curve with a large enough effect; inconclusive means small, poorly fitted or top-dose-only effect, or another doubt; inactive means no such curve, though single readings can be large or run the other way. Where the call is inconclusive, the potency comes from a doubtful curve fit.

Sequences of proteins named here, by UniProt entry; tags and fusion partners are left off. A change or cut given only in a name is not applied to a line headed by its entry.
UniProt P18054: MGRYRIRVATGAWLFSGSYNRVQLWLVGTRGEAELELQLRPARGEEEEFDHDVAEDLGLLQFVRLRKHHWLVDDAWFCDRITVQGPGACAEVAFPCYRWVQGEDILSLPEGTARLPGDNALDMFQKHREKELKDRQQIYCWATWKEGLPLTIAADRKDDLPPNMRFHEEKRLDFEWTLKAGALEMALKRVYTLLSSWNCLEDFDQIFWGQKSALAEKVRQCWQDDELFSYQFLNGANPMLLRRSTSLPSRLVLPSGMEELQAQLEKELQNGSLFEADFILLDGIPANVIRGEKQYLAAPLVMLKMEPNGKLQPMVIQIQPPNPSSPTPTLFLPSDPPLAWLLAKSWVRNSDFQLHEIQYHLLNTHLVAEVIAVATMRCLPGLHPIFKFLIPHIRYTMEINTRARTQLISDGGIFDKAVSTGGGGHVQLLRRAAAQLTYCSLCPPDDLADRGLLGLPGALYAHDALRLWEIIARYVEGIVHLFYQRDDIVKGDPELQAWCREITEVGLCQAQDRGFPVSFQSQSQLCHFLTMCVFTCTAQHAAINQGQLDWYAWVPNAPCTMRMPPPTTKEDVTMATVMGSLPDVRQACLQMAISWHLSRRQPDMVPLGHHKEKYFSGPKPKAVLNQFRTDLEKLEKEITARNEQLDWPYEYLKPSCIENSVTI

Biological target: Polyunsaturated fatty acid lipoxygenase ALOX12 (Homo sapiens) (UniProt P18054)
Test: Primary qHTS assay for inhibitors of human arachidonate 12S-lipoxygenase (ALOX12): Round 2
Settings: purified 12hLO, xylenol orange hydroperoxide absorbance; series mostly up to 108 µM
In short: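 Purified human 12hLO (150 nM final) in 25 mM Hepes, 0.01% Triton X-100, pH 7.0 was preincubated 15 min at room temperature with compound. Then 40 uM arachidonic acid was added, 30 min. Hydroperoxide was read by Fe-XO absorbance ratio 573/405 nm.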
Potency means the concentration at half of the fitted maximal effect.

| Structure (SMILES) | Potency |
| --- | --- |
| CC1CN2C(c3ccc([N+](=O)[O-])cc3)=CSC2=N1 (stereo not given) | inconclusive: 35.5 µM [inhibitor, partial curve, poor fit] |
| OC(CN1CCCCC1)Cn1c2ccc(Cl)cc2c2cc(Cl)ccc21 (stereo not given) | inconclusive: 50.1 µM [inhibitor, partial curve] |
| O=C(c1ccco1)[C@@H]1[C@@H]2C(=O)N(c3ccc(F)cc3)C(=O)[C@@H]2[C@H]2C=Cc3ccccc3N21 | inconclusive: 39.8 µM [inhibitor, partial curve, poor fit] |
| Cc1ccc(NC(=O)c2ccc(NC(=O)N3CCSc4nc(C)cc(C)c43)cc2)c(Cl)c1 | inconclusive: 141 µM [inhibitor, single point] |
| COC(=O)c1ccccc1NC(=O)c1cc2nc(-c3ccc(OC)cc3)cc(C(F)(F)F)n2n1 | inactive |
| O=C(NC(Cc1ccccc1)c1nc2ccccc2[nH]1)c1ccc(Cl)c([N+](=O)[O-])c1 (stereo not given) | inactive |
| O=C(NC1(C(F)(F)F)C(=O)Nc2c1c(=O)[nH]c(=O)n2-c1ccc(F)cc1)c1ccco1 (stereo not given) | inconclusive: 31.6 µM [inhibitor, partial curve, poor fit] |
| COc1ccc(CN(C)C(=O)c2cccc(S(=O)(=O)N3CCN(c4ccccc4)CC3)c2)c(OC)c1OC | inactive |
| CN(C)S(=O)(=O)c1cccc(NC(=O)COC(=O)c2ccc(Br)o2)c1 | inconclusive: 89.1 µM [inhibitor, partial curve, poor fit] |
| COc1ccccc1CNC(=O)C1(C)CCCCN1C (stereo not given) | inconclusive: 89.1 µM [inhibitor, partial curve, poor fit] |
| O=C(CSc1nc(C2CC2)nc2ccccc12)N1c2ccccc2Sc2ccc(C(F)(F)F)cc21 | inconclusive: 0.282 µM [inhibitor, full curve, poor fit] |
| COc1ccc(OC)c(CCNC(=O)c2ccc3c(=O)[nH]c4c(C(=O)NC(C)C)sc(=S)n4c3c2)c1 | inconclusive: 31.6 µM [inhibitor, partial curve] |
| O=C(CCN1N=C(c2ccccc2)CCC1=O)NCCc1ccc(Cl)cc1 | inconclusive: 50.1 µM [inhibitor, partial curve, poor fit] |
| Cc1ccc(CN(C)C(=O)c2cc(COc3cccc(C(F)(F)F)c3)on2)o1 | active: 39.8 µM |
| Cc1ccc(NC(=Nc2ccc(Br)cc2)N2CCOCC2)cc1C | inactive |
| COc1ccc(CCNC(=O)c2ccc3c(c2)N(Cc2ccccc2F)C(=O)c2ccccc2S3(=O)=O)cc1OC | inactive |
| COC(=O)c1ccccc1NC(=O)c1c(O)c2c([nH]c1=O)CCCC2 | inconclusive: 39.8 µM [inhibitor, single point] |
| O=C(NNc1ccc([N+](=O)[O-])cc1[N+](=O)[O-])C1C2CCCCC21 (stereo not given) | inactive |
| COc1ccc(NC(=O)c2cnc3ccccc3n2)c(OC)c1 | inconclusive: 39.8 µM [inhibitor, partial curve, poor fit] |
| O=C(O)Cn1c2ccccc2c2ccccc21 | inconclusive: 141 µM [inhibitor, single point] |

| Structure (SMILES) | Potency |
| --- | --- |
| O=C(/C=C/c1ccc(Cl)cc1)c1cccc(O)c1 | inconclusive: 56.2 µM [inhibitor, partial curve, poor fit] |
| Cc1ccc(CN(Cc2ccco2)C(=O)COc2cc(C)c(Cl)c(C)c2)cc1 | inconclusive: 126 µM [inhibitor, partial curve, poor fit] |
| COC(=O)c1ccc(COC(=O)CCS(=O)(=O)c2ccc(F)cc2)cc1 | inconclusive: 50.1 µM [inhibitor, partial curve, poor fit] |
| CC(C)OC(=O)c1cccc(NC(=O)c2ccccc2)c1 | inactive |
| COc1ccc(-c2c(C)oc3cc(OCC(=O)N4CCC(C(N)=O)CC4)ccc3c2=O)cc1 | inconclusive: 100 µM [inhibitor, partial curve, poor fit] |
| CCOC(=O)c1cnc2c(ccc3ccccc32)c1Nc1cccc(OC)c1 | inconclusive: 50.1 µM [inhibitor, partial curve, poor fit] |
| Cc1cccc(N(C)S(=O)(=O)c2ccc3c(c2)C(C)(C)C(=O)N3C)c1 | inactive |
| Cc1ccc(C(=O)C(C#N)C(=O)NCc2ccccc2)cc1C (stereo not given) | inconclusive: 44.7 µM [inhibitor, partial curve, poor fit] |
| Cc1ccc(NC(=O)/C=C/c2ccc(C)o2)c(C)c1 | inactive |
| CC(=O)Oc1cccc(NC(=O)c2ccc3c(c2)C(=O)N(CC(C)C)C3=O)c1 | inconclusive: 1.78 µM [inhibitor, partial curve, poor fit] |
| C=CCN1CCN(C(c2ccc(OC)c(OC)c2)c2nnnn2C(C)(C)C)CC1 (stereo not given) | inconclusive: 35.5 µM [inhibitor, partial curve, poor fit] |
| Cc1cc(C(=O)CNCc2ccco2)c(C)n1-c1ccc(F)cc1 | inconclusive: 1.41 µM [inhibitor, full curve, poor fit] |
| CCCCn1c(=O)n(CC(C)(C)O)c(=O)c2c1nc(CO)n2CCC | inconclusive: 39.8 µM [inhibitor, partial curve, poor fit] |
| Oc1ccc(C2(c3cccc(F)c3)CCCCC2)cc1 | inconclusive: 31.6 µM [inhibitor, partial curve, poor fit] |
| O=C(Nc1ccccc1C(=O)OCC(=O)N1CCCC1=O)c1ccco1 | inconclusive: 112 µM [inhibitor, single point] |
| O=C(c1ccccc1)N(C(=O)c1ccccc1)c1ccccc1 | inactive |
| O=C1CC(Sc2ncn[nH]2)C(=O)N1c1ccccc1 (stereo not given) | inconclusive: 8.91 µM [inhibitor, partial curve, poor fit] |
| O=C(CNc1cccc(S(=O)(=O)N2CCCC2)c1)Nc1ccc(C(F)(F)F)cc1 | inconclusive: 5.01 µM [inhibitor, full curve, poor fit] |
| COC(=O)[C@]1(Cc2ccccc2)N[C@H](CN(C)C(=O)C2CCCCC2)[C@@H]2C(=O)N(Cc3ccccc3)C(=O)[C@@H]21 | inactive |
| O=c1[nH]c2ccccc2nc1/C=C/c1ccc(Cl)cc1 | inactive |

Looked up above:
Under Potency, O=C1CC(Sc2ncn[nH]2)C(=O)N1c1ccccc1 (stereo not given) is listed with inconclusive: 8.91 µM [inhibitor, partial curve, poor fit]
Under Potency, COc1ccc(-c2c(C)oc3cc(OCC(=O)N4CCC(C(N)=O)CC4)ccc3c2=O)cc1 is listed with inconclusive: 100 µM [inhibitor, partial curve, poor fit]
